The target of the assay is FLAG-tagged Signal Regulatory Protein Beta 1 (SIRPB1^MUT, sgRNA-resistant synonymous mutant) (UniProt O00241). The assay is described as follows: co-IP; macrophage lysate (IP lysate with protease inhibitors) incubated overnight at 4 °C with FLAG antibody or mouse IgG, protein A/G beads 6 h at 4 °C, eluted with 1x loading buffer.

By UniProt entry, the sequences of proteins in these tests, tags left out. Where a name states a change or a piece, a line headed by the entry shows the natural chain unless it says otherwise. Residues count along the entry.
UniProt O00241, residues 30-398: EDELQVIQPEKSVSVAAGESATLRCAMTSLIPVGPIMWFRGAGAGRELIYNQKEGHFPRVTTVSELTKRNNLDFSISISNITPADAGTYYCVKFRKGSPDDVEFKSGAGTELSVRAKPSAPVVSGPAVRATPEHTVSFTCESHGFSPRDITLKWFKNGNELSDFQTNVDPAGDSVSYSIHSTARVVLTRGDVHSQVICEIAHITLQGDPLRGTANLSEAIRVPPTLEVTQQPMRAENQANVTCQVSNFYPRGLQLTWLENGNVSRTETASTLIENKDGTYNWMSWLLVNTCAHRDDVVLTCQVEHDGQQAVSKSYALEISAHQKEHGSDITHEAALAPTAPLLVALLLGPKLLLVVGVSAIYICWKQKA
UniProt O43914, residues 22-113: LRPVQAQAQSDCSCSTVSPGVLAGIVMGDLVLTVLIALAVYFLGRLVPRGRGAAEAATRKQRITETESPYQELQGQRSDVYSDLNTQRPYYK

The record followed here is publication PMC11003053.

Results are given in words; binding and its absence hold for the method and conditions named. In cells and extracts the contact can be indirect. Some entries that bind do so weakly or less than the wild type.

For the substance “DAP12 adaptor protein (from UniProt O43914 22-113)”, the binding entry is on record as “binds”.
